This passage reports NP40-soluble protein abundance results from the supplement of paper PMC6411743.

By UniProt entry, the sequences of proteins in these tests, tags left out. Where a name states a change or a piece, a line headed by the entry shows the natural chain unless it says otherwise.
UniProt Q9H930: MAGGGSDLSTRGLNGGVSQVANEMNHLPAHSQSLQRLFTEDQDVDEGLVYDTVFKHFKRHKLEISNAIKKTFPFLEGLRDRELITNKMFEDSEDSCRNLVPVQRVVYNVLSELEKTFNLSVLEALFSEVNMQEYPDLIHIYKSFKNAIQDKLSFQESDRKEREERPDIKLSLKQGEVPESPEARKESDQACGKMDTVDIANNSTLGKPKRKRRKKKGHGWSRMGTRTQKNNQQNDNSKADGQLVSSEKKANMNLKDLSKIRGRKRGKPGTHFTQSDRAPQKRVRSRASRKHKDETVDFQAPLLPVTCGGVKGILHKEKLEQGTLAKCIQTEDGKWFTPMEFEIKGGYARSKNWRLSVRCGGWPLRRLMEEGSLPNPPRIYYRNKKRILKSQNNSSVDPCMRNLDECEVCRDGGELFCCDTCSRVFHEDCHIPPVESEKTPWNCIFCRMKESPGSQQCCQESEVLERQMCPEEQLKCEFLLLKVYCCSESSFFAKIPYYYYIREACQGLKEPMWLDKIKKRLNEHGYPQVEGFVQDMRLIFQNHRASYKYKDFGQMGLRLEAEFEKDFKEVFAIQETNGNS
UniProt Q9ULV3: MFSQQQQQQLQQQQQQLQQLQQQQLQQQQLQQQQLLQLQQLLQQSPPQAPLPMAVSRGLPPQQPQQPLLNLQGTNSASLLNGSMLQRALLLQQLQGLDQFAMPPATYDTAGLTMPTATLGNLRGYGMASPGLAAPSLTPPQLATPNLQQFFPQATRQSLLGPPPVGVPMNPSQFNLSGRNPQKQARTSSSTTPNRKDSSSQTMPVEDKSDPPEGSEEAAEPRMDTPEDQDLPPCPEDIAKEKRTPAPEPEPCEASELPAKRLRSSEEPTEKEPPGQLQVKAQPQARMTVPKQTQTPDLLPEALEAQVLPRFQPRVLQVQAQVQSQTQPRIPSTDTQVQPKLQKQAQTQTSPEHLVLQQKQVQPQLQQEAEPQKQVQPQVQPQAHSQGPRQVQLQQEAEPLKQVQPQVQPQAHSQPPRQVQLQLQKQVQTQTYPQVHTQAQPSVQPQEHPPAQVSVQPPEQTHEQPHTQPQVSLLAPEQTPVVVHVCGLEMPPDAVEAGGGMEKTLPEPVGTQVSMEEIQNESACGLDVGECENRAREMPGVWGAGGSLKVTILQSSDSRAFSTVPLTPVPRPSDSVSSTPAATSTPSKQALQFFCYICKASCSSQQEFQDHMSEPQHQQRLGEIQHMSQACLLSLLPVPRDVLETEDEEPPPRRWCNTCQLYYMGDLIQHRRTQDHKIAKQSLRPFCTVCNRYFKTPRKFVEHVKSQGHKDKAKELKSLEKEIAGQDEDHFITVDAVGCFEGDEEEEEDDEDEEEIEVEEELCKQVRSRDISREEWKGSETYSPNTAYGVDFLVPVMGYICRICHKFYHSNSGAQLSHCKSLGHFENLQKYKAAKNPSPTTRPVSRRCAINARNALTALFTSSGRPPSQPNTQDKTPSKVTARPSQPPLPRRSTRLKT
UniProt Q01433: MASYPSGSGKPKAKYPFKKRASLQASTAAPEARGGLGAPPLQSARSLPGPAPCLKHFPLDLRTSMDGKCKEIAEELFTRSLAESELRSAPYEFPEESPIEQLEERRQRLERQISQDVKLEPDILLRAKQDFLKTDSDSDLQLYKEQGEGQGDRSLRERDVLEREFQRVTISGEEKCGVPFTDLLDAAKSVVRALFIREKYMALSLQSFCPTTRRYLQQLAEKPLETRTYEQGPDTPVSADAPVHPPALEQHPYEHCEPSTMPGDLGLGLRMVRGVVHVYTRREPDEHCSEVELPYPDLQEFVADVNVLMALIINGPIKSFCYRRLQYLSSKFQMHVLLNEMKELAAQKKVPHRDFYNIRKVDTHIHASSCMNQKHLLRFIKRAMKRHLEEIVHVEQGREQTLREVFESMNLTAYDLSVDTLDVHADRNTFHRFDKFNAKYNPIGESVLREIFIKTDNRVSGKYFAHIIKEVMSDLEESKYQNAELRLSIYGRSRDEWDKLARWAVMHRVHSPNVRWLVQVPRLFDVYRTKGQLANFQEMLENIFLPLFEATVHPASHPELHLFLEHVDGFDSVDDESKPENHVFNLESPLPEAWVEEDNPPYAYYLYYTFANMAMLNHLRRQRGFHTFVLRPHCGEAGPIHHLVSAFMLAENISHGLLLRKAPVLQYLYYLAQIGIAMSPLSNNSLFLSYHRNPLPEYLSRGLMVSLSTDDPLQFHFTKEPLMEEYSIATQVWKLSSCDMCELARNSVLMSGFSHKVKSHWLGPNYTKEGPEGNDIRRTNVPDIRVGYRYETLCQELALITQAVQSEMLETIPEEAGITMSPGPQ
UniProt Q16543: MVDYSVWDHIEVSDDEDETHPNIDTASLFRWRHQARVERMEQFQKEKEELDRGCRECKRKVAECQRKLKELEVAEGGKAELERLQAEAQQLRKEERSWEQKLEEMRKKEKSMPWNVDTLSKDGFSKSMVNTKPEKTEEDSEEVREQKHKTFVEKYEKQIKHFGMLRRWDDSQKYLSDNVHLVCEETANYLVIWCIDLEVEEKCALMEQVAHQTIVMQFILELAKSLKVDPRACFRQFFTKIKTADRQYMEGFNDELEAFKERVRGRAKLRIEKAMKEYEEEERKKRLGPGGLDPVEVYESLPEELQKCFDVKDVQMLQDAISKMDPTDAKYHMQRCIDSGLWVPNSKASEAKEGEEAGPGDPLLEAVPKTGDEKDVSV
UniProt Q96J42: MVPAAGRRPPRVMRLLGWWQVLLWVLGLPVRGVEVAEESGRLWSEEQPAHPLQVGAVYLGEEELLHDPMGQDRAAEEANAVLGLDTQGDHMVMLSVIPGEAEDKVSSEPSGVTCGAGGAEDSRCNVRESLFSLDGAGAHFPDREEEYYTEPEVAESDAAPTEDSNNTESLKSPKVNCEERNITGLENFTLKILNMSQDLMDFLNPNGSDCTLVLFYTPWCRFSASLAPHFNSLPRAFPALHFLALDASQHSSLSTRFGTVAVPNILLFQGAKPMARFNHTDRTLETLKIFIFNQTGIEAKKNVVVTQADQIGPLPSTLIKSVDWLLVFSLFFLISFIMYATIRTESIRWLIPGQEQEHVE
UniProt P60510: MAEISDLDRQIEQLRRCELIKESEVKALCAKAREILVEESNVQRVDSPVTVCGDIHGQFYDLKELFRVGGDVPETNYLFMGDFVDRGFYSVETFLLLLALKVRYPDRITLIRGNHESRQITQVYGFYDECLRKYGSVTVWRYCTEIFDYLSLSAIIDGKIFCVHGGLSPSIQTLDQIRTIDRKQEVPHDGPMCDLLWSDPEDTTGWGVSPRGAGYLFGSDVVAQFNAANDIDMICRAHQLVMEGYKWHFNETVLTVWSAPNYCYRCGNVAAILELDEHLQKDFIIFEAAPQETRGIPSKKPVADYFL
UniProt Q9P246, whole entry: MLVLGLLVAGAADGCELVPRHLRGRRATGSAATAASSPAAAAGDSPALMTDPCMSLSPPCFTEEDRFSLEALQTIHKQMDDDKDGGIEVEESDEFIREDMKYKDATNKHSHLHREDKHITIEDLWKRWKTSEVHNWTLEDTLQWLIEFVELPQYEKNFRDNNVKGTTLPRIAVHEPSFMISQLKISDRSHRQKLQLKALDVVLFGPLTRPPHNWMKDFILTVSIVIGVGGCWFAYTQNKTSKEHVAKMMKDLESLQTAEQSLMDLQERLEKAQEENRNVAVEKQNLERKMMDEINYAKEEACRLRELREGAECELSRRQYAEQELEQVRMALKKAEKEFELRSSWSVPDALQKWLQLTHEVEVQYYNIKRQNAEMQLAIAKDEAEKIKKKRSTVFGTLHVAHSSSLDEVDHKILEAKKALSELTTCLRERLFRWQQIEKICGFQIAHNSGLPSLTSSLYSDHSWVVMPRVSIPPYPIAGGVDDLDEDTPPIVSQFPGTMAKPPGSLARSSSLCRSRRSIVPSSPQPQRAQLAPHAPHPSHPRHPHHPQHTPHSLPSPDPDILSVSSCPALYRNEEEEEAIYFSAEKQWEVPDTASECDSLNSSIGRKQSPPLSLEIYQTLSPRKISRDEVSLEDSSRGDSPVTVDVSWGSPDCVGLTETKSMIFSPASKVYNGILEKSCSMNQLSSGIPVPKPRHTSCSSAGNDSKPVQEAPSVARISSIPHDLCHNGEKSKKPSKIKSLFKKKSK
UniProt Q70J99: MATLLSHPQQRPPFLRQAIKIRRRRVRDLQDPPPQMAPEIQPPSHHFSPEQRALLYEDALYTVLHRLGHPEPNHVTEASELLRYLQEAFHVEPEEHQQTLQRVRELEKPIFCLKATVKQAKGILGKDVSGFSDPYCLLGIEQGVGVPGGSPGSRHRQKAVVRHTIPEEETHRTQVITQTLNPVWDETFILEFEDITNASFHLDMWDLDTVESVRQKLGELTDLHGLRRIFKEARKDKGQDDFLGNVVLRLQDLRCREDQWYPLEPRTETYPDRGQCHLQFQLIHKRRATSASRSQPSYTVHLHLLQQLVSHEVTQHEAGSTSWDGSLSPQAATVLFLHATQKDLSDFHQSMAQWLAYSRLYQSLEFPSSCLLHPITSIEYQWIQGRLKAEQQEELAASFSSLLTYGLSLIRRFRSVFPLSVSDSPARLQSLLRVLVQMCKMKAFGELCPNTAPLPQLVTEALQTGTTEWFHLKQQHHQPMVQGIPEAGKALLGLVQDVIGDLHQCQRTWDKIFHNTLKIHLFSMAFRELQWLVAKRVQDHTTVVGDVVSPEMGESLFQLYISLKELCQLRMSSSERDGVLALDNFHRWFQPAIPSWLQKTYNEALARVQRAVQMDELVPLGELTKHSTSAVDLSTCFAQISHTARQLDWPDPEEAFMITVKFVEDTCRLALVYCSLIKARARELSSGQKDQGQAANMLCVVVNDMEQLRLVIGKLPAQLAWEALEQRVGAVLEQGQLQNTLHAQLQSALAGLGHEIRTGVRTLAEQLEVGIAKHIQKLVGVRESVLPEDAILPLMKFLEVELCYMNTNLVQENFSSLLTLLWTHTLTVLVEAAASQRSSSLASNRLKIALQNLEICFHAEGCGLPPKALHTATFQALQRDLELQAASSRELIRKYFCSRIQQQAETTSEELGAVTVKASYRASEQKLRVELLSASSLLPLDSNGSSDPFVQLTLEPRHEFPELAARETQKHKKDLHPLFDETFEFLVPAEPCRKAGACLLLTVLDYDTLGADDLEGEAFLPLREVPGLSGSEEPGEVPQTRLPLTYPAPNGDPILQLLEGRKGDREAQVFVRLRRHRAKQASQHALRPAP
UniProt Q9GZU7: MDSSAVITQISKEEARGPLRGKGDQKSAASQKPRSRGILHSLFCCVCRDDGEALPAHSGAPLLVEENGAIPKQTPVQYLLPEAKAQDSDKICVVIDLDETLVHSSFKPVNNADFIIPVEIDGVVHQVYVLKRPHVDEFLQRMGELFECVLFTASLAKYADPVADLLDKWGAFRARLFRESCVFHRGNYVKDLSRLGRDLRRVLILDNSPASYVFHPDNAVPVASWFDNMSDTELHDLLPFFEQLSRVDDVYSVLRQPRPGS
UniProt Q5J8M3, whole entry: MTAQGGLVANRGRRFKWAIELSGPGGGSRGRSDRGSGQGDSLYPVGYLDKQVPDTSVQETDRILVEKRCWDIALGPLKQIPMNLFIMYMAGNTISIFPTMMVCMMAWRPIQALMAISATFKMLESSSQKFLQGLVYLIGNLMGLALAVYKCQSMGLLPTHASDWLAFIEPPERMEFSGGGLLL
UniProt Q96PV7: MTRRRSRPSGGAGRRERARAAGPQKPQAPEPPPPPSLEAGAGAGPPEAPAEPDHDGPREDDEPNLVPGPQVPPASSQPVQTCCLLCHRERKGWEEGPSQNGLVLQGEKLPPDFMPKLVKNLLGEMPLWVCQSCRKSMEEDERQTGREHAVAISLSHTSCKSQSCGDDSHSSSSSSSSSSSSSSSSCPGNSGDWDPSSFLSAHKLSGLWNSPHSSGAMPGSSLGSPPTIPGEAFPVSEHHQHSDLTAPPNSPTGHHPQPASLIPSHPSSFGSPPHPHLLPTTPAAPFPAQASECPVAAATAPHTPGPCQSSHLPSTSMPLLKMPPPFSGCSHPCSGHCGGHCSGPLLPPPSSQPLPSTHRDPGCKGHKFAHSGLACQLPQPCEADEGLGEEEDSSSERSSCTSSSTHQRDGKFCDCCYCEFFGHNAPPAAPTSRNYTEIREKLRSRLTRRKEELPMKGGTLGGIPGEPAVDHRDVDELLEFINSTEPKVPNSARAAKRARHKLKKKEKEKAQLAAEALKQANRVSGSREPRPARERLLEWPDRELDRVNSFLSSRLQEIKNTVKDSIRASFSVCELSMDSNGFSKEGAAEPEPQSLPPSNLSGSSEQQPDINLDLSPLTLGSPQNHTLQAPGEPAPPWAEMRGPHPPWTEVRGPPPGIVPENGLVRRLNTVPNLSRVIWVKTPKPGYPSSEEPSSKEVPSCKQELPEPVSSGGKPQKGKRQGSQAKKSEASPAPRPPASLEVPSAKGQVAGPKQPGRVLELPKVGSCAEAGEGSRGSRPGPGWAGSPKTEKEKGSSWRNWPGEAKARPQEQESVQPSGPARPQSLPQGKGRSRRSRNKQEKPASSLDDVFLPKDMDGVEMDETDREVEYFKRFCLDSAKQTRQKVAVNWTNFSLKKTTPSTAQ

± gives the standard deviation of the averaged measurements. This is a selection; strong and weak results do not stand in their true shares.

Compound in this experiment: Nc1ncnc2c1ncn2[C@@H]1O[C@H](COP(=O)(O)OP(=O)(O)OP(=O)(O)O)[C@@H](O)[C@H]1O [adenosine triphosphate]
In words: NP40-soluble protein abundance relative to vehicle (solubility fold change) (ratio); higher = more soluble protein in presence of ATP. As to conditions: concentration: 1mM. The procedure, abridged:
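Jurkat crude lysate prepared with a Dounce homogeniser was treated at eight concentrations spanning 0.1 to 10 mM, 10 min at room temperature then 3 min at 37 °C. Solubilisation with 0.8% NP40 and benzonase and ultracentrifugation preceded TMT labelling of the supernatant for LC-MS/MS. Fold change against the detergent-processed vehicle was determined per replicate from vsn-normalised intensities, across three independent experiments.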
In the case of “H7BYP4 and related entries (UniProt Q9H930)”, the NP40-soluble protein abundance amounted to 0.944 ± 0.09. With “J3QRU1 and related entries (UniProt P07947)”, the NP40-soluble protein abundance turned out to be 0.995 ± 0.13. To “H0Y5D5 and related entries (UniProt Q9ULV3)” belongs 0.941 ± 0.05. Regarding UniProt I3L0E3, the NP40-soluble protein abundance stood at 1.03 ± 0.033. To “H0Y360 and related entries (UniProt Q01433)” belongs 0.956 ± 0.025; to “H3BQD1 and related entries (UniProt Q93009)”, 1.05 ± 0.11; to “H3BPU4 and related entries (UniProt Q9UGJ1)”, 1.12 ± 0.092. Under “H0Y4B0 and related entries (UniProt O43414)” stands 1.09 ± 0.14; under “K7EPA3 and related entries (UniProt Q9NX61)”, 0.896 ± 0.11. Under “J3KQJ1 and related entries (UniProt Q8NBJ7)” stands 0.9379 ± 0.0089; under “M0QX46 and related entries (UniProt Q6UUV9)”, 1.02 ± 0.09.

As for “I3L121 and related entries (UniProt Q96AJ1)”, the NP40-soluble protein abundance came out at 1.01 ± 0.09. To “I3L4C2 and related entries (UniProt Q9UQB8)” belongs 0.9602 ± 0.0035. To “K7EL68 and related entries (UniProt Q16543)” belongs 0.959 ± 0.059; to “H7C3H7 and related entries (UniProt Q12873)”, 1.23 ± 0.028.

For the target “H7C2Q8 and related entries (UniProt Q99848)”, the NP40-soluble protein abundance is 1.23 ± 0.13. Under “I3L2C7 and related entries (UniProt P57678)” stands 1.06 ± 0.07.

Take L0R819 (UniProt Q9NWL6): the NP40-soluble protein abundance is 0.912 ± 0.13. In the case of “H0Y997 and related entries (UniProt Q96J42)”, the NP40-soluble protein abundance is 0.823 ± 0.015. Turning to “H3BTA2 and related entries (UniProt P60510)”, the NP40-soluble protein abundance is 0.99 ± 0.081. As for “J3KNP4 and related entries (UniProt Q9NPR2)”, the NP40-soluble protein abundance amounted to 0.98 ± 0.072.

For “K4DI93 and related entries (UniProt Q13620)”, the NP40-soluble protein abundance came to 0.994 ± 0.075. With “K7EKE6 and related entries (UniProt P36776)”, the NP40-soluble protein abundance was 1.01 ± 0.045.

On to “H0Y860 and related entries (UniProt Q9P246)”, for which the NP40-soluble protein abundance amounted to 1.04 ± 0.067. Take “K7EQ37 and related entries (UniProt Q70J99)”: the NP40-soluble protein abundance is 1.04 ± 0.098. Turning to “K7ER53 and related entries (UniProt O95644)”, the NP40-soluble protein abundance stood at 1.1 ± 0.1. To “H7C1Z7 and related entries (UniProt Q9GZU7)” belongs 0.921 ± 0.067; to “H0Y8W3 and related entries (UniProt O43566)”, 1 ± 0.029; to “I3L3K5 and related entries (UniProt O95476)”, 0.983 ± 0.12. Under “H0YK61 and related entries (UniProt Q5J8M3)” stands 1.03 ± 0.12; under “H6UMI1 and related entries (UniProt O95166)”, 0.91 ± 0.082; under “H0YCX2 and related entries (UniProt Q96PV7)”, 1.07 ± 0.042.

As to “H0YIE9 and related entries (UniProt O94952)”, the NP40-soluble protein abundance worked out at 1.04 ± 0.11.

Turning to “J3QTA2 and related entries (UniProt Q99933)”, the NP40-soluble protein abundance came out at 0.999 ± 0.02.

On to “J3KSB5 and related entries (UniProt P21359)”, for which the NP40-soluble protein abundance worked out at 1.06 ± 0.17.
